Test results from PMC11471390.
Results are given in words; binding and its absence hold for the method and conditions named. In cells and extracts the contact can be indirect. Some entries that bind do so weakly or less than the wild type.

Chains of the proteins cited; added tags and fusions are not shown.
UniProt P56581: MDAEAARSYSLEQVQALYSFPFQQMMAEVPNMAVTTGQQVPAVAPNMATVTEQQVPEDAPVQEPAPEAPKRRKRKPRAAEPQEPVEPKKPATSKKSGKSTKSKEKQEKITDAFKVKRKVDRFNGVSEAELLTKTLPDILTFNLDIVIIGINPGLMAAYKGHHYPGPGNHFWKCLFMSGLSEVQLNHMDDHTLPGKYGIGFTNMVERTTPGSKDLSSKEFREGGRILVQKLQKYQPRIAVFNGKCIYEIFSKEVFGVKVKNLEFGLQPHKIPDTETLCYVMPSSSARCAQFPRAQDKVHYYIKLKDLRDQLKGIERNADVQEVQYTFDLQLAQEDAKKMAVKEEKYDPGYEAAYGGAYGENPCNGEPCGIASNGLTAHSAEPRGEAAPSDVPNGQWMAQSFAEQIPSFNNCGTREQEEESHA

Target: T1, DDB1-Cullin-4-associated factor-2 (DCAF2) (mouse (endogenous in P9 mouse testes)) (UniProt Q3TLR7)
T1 sequence: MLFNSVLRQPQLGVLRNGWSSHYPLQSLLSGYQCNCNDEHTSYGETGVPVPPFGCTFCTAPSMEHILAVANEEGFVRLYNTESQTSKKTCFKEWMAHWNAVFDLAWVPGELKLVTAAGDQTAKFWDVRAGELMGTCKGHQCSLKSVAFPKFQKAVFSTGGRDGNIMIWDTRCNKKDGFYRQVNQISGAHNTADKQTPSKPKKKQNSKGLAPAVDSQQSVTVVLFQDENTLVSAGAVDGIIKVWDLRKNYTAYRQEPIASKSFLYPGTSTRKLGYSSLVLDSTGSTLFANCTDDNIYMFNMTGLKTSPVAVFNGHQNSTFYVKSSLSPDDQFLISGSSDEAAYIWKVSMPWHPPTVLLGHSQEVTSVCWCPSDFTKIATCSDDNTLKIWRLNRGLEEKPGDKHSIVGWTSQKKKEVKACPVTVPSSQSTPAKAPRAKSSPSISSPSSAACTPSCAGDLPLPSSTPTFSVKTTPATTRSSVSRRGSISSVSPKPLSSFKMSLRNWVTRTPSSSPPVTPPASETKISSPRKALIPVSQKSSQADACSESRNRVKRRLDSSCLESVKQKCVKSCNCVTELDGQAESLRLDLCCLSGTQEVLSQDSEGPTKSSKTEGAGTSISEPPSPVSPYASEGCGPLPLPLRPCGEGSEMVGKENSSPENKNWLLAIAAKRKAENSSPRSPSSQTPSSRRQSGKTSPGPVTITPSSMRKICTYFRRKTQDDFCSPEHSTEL
Experiment: co-IP; P9 mouse testes extracted in RIPA buffer; Dynabeads Protein A with bound antibody, 4°C with rotation; samples preincubated with beads conjugated with normal rabbit/mouse IgG; denaturing elution, Western blotting

## thymine DNA glycosylase (TDG) (from UniProt P56581 1-421)
  binding: binds

B1: cyclin-dependent kinase inhibitor 1A (p21) (protein, UniProt P39689 1-159)
chain: MSNPGDVRPVPHRSKVCRCLFGPVDSEQLRRDCDALMAGCLQEARERWNFDFVTETPLEGNFVWERVRSLGLPKVYLSPGSRSRDDLGGDKRPSTSSALLQGPAPEDHVALSLSCTLVSERPEDSPGGPGTSQGRKRRQTSLTDFYHSKRRLVFCKRKP
  binding: binds
